No constants are given. Whether binding was seen depends on the method and setting. For part of these data: Binding seen in cells or lysates may run through a third protein. Some entries that bind do so weakly or less than the wild type. For part of these data: Where a sequence is shown, tags or fusion partners need not be part of it. Values belong to the substance of their own block, whether it stands above or below them.
Key:
[1] = target: T1, endogenous ANLN (Anillin) (human (endogenous in KYSE150 and KYSE510)) (UniProt Q9NQW6); experiment: proximity ligation
T1 sequence: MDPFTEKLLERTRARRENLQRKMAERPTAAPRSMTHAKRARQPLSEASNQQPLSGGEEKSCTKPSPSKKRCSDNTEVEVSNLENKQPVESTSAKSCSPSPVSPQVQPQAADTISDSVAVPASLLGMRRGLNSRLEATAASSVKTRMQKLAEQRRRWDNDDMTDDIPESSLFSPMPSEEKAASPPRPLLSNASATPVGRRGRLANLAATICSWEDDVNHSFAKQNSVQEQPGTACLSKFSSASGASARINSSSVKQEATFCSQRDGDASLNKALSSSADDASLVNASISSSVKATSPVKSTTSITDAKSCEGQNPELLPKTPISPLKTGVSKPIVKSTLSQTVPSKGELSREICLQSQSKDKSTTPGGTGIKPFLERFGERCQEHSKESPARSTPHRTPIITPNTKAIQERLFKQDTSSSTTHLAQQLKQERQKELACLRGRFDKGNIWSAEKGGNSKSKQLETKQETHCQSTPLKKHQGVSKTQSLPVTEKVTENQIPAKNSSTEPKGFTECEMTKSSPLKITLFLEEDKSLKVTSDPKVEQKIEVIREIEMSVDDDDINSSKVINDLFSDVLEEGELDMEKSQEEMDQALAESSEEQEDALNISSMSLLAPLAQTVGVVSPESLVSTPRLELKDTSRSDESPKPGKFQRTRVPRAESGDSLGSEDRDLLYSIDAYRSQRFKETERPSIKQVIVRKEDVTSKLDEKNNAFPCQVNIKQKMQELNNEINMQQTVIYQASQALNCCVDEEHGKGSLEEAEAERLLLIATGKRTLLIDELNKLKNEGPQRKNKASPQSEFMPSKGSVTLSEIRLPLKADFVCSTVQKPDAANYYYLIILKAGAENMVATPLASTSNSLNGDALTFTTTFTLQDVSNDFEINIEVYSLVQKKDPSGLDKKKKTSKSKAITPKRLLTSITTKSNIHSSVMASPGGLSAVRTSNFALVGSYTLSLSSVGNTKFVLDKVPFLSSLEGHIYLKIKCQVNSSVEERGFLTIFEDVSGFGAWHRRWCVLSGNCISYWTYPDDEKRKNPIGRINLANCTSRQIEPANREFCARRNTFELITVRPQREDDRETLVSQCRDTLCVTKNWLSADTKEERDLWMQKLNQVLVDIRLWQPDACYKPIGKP

The chains behind the UniProt entries cited, without tags or fusion partners.
UniProt P12004: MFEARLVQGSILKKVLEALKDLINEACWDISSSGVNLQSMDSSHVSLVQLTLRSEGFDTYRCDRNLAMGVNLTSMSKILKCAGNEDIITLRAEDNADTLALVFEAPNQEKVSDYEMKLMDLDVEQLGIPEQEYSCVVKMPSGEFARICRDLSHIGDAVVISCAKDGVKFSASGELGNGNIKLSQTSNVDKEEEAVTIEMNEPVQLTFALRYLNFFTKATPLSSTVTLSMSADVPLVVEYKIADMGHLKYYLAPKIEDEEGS

[2] = target: T1, endogenous ANLN (Anillin) (human (endogenous in KYSE150 and KYSE510)); experiment: co-IP
[3] = target: T2, ANLN C-terminal 454-1124 region (human) (UniProt Q9NQW6); experiment: co-IP
T2 sequence: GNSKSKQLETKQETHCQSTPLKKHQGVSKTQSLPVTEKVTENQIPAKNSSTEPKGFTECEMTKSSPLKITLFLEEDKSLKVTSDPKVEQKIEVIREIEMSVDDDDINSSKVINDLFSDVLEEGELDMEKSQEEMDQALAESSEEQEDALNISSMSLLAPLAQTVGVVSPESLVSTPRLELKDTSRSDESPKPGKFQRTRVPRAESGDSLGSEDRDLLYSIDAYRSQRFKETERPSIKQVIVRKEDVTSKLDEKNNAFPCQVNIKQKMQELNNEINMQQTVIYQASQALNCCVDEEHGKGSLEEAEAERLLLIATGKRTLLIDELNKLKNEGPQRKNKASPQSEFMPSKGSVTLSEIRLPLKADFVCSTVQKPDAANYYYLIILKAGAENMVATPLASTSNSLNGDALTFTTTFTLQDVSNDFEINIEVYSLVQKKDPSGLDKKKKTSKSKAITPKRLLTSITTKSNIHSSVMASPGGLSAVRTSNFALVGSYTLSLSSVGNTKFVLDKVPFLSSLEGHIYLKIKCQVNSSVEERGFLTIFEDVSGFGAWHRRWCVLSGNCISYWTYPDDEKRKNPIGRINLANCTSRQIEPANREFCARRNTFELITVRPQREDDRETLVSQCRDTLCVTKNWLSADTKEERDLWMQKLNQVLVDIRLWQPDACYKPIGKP

[4] = target: T3, HA-ANLN (Anillin, wild type) (human) (UniProt Q9NQW6); experiment: co-IP
T3 sequence: T1 sequence

[5] = target: T4, ANLN N-terminal 1-454 region (human) (UniProt Q9NQW6); experiment: co-IP
T4 sequence: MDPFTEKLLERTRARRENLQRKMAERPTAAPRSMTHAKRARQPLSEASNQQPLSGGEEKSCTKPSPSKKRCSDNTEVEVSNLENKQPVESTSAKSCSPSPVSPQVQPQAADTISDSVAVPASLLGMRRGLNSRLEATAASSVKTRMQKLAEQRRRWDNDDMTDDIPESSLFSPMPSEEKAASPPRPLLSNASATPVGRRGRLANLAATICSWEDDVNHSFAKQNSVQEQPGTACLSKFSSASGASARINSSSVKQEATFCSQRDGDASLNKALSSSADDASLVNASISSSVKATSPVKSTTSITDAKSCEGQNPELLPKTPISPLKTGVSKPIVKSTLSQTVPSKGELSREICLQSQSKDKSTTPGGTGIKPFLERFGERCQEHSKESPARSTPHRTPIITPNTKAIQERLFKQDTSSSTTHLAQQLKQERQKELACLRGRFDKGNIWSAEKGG

His labeled ANLN (human) = target: T5, His labeled ANLN (human) (UniProt Q9NQW6); experiment: pull-down
T5 sequence: T1 sequence

binding [1]: binds
binding [2]: binds
Substance: endogenous PCNA (proliferating cell nuclear antigen) (from UniProt P12004 1-261)

Substance: Flag-PCNA (from UniProt P12004 1-261)
binding [3]: no binding
binding [4]: binds
binding [5]: binds

binding (His labeled ANLN (human)): binds
Substance: PCNA without label (from UniProt P12004 1-261)

Source: paper doi:10.1101/2024.08.27.609892
